From PMC9121323, “Using fluorescence anisotropy to monitor chaperone dispersal of RNA-binding protein condensates”
Results are given in words; binding and its absence hold for the method and conditions named. Some results given as binding are weak or reduced against the parent protein; the word gives no strength.

Molecular target: T1, Poly(A)-binding protein (Pab1) (S. cerevisiae), P04147
T1 chain: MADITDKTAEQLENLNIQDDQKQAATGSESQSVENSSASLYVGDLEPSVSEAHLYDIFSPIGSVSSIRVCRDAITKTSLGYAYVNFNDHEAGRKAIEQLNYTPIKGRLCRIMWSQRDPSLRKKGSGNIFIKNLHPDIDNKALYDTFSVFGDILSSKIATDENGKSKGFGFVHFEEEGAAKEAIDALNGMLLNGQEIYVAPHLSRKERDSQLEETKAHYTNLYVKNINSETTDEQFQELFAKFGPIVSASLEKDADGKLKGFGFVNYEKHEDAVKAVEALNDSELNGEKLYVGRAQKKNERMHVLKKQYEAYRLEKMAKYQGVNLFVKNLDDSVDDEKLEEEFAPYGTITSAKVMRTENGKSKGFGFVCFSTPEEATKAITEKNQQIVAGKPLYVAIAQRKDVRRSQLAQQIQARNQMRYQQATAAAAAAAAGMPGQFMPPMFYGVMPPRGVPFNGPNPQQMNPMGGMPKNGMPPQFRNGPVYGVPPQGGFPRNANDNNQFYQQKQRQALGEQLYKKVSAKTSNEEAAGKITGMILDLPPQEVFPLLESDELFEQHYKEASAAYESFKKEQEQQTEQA
Experiment: SEC; 500 uL of 25 uM Pab1 in 20 mM HEPES pH 6.8, 150 mM KCl, 2.5 mM MgCl2, 1 mM DTT, heated at 42°C for 20 min, centrifuged 3 min at 8,000 g; supernatant on Superose 6 10/300 in 20 mM HEPES pH 7.3, 150 mM KCl, 2.5 mM MgCl2, 1 mM DTT; void volume cutoff 5,000 kDa; both purified
Settings: remark: other sources report otherwise

- binding: binds
B1: Poly(A)-binding protein (Pab1), P04147 1-577 (protein)
chain: T1 chain
